Publication PMC9243176, “Multifaceted regulation of the sumoylation of the Sgs1 DNA helicase” (The Journal of Biological Chemistry, 2022)
The exact form of at least one protein or probe is not confirmed. For some assays here: Weaker means in comparison with the reference protein, sequence or condition of that experiment. For some assays here: Protein sequences can lack the tags named with them. For some assays here: At least one verdict rests on a figure or table, not on a statement of the authors.

Assays:
[1] = test system: Mms21 + Smc5; assay: EMSA; conditions: 5-40 nM E3, 5 nM DNA, moderate DNA binding; 35 mM Tris-HCl pH 7.5, 1 mM DTT, 100 ug/ml BSA, 5 mM MgCl2, 130 mM KCl, 30 C, 10 min; native PAGE in TAE (6.5% STR and E3, 7% Esc2); recombinant protein
[2] = molecular target: T1, Esc2 (Saccharomyces cerevisiae) (UniProt Q06340); assay: EMSA; conditions: 5-80 nM Esc2, 5 nM DNA; 35 mM Tris-HCl pH 7.5, 1 mM DTT, 100 ug/ml BSA, 5 mM MgCl2, 130 mM KCl, 30 C, 10 min; native PAGE in TAE (6.5% STR and E3, 7% Esc2); recombinant protein
T1 sequence (looked up, limits assumed): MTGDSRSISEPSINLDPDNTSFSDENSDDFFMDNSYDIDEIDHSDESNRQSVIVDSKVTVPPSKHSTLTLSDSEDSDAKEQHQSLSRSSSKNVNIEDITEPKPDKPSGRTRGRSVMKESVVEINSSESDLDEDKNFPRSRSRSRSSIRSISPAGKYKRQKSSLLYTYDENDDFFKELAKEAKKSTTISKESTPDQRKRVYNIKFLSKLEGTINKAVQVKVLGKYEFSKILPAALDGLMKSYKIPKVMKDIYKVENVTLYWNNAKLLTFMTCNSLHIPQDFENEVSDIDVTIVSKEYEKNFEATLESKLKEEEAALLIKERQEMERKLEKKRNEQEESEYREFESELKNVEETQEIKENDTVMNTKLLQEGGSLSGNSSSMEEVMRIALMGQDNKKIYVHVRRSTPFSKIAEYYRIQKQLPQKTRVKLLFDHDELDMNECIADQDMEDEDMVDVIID

Sequence: TTGATAAGAGGTCATTTGAATTCATGGCTTAGAGCTTAATTGCTGAATCTGGTGCTGGGATCCAACATGTTTTAAATATG (double strand) [dsDNA (H3/H4)]
- binding result [1]: binds
- binding result [2]: binds more weakly
